In patent publication US20260091129A1, “NANOCOMPOSITE FOR TARGETED DEGRADATION OF PATHOGENIC PROTEIN, PREPARATION METHOD THEREFOR, AND USE THEREOF” (priority 2022, published 2026):
For at least one compound, name, drawing or mass did not settle the structure.

The chains behind the UniProt entries cited, without tags or fusion partners. Where a name states a change or a piece, a line headed by the entry shows the natural chain unless it says otherwise.
UniProt P04637: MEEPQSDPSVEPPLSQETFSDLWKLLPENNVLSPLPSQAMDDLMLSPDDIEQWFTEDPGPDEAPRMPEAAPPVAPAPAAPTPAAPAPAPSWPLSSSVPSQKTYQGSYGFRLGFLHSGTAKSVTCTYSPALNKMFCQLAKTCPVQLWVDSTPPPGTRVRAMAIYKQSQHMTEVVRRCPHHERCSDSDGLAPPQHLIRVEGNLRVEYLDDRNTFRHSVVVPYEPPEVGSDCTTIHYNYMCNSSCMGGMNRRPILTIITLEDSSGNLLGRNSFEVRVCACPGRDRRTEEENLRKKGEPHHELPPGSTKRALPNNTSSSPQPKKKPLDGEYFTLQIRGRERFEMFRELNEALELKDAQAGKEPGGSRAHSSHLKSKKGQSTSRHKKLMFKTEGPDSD

Molecular target: T1, mutant p53 protein in ES-2 cells (Homo sapiens, UniProt P04637, S241F)
T1 construct: endogenous in cells; host or cells: ES-2
Assay: degradation pathway test with autophagy and proteasome inhibitors (western blot)
Type: cell-based
Settings: 500 μg/mL NRs + Wortmannin 1 μM or MG-132 10 μM, 12 hours
Procedure: ES-2 cells were seeded in a 24-well cell culture plate (density approximately 5×10^4/well) and cultured overnight. PBS, 500 μg/mL NRs, autophagy inhibitor Wortmannin (abbreviated as Wort, 1 μM), 500 μg/mL NRs+Wort, proteasome inhibitor MG-132 (10 μM), and 500 μg/mL NRs+MG-132 (10 μM) were added respectively. FIG. 15 is a western blot image for detecting the specific degradation pathway of NRs in ES-2 cells to degrade mutant p53 protein.

COC[C@H]1OC(=O)c2coc3c2[C@@]1(C)C1=C(C3=O)[C@@H]2CCC(=O)[C@@]2(C)C[C@H]1OC(C)=O [Wortmannin]
inhibition of the degradation of mutant p53 protein triggered by NRs: can effectively inhibit
